In patent publication US20250185656A1, “PIPERIDINONE DERIVATIVE OR SALT THEREOF, HARMFUL ORGANISM CONTROL AGENT CONTAINING SAID COMPOUND, AND METHOD FOR USING SAME” (ADEKA Corporation, priority 2022, published 2025):
Some of these results come from one statement about several compounds together.

What was measured:
Plutella xylostella = assay: Insecticidal test against Plutella xylostella; conditions: 500 ppm drug solution; Chinese cabbage seedlings with eggs immersed about 30 sec; six days after immersion; 25° C.
Laodelphax striatellus = assay: Insecticidal test against Laodelphax striatellus; conditions: 500 ppm drug solution; rice seedlings immersed 30 seconds; three-instar Laodelphax striatellus; eight days after inoculation
[1] = tested on: Frankliniella occidentalis; assay: Insecticidal test against Frankliniella occidentalis; conditions: 500 ppm drug solution sprayed on hatched larvae on Phaseolus vulgaris leaf pieces; four days after treatment

| Structure (SMILES) | corrected mortality, rating of assessment (Plutella xylostella) | corrected mortality, rating of assessment (Laodelphax striatellus) | corrected mortality, rating of assessment [1] |
| --- | --- | --- | --- |
| O=C1CN(Cc2ccc(SC(F)(F)F)cc2)CC(O)=C1C(=O)Nc1ccc(F)cc1 [Compound 1-5] | A (mortality 100%) | – | – |
| N#Cc1ccc(CN2CC(=O)C(C(=O)Nc3ccc(F)cc3)=C(O)C2)cc1 [Compound 1-11] | A (mortality 100%) | – | – |
| O=C1CN(Cc2ccc(Cl)cc2)CC(O)=C1C(=O)Nc1ccc(F)cc1 [Compound 1-12] | A (mortality 100%) | – | – |
| O=C1CN(Cc2cccc(C(F)(F)F)c2)CC(O)=C1C(=O)Nc1ccc(F)cc1 [Compound 1-16] | A (mortality 100%) | – | – |
| O=C1CN(Cc2cc(C(F)(F)F)cc(C(F)(F)F)c2)CC(O)=C1C(=O)Nc1ccc(F)cc1 [Compound 1-18] | A (mortality 100%) | – | – |
| O=C1CN(Cc2ccccc2C(F)(F)F)CC(O)=C1C(=O)Nc1ccc(F)cc1 [Compound 1-20] | A (mortality 100%) | A (mortality 100%) | – |
| O=C1CN(CC(=O)c2ccc(Cl)cc2)CC(O)=C1C(=O)Nc1ccc(F)cc1 [Compound 1-22] | A (mortality 100%) | – | – |
| O=C1CN(C(=O)c2ccc(C(F)(F)F)cc2)CC(O)=C1C(=O)Nc1ccc(F)cc1 [Compound 1-26] | A (mortality 100%) | – | – |
| COC(=O)N1CC(=O)C(C(=O)Nc2ccc(F)cc2)=C(O)C1 [Compound 1-28] | A (mortality 100%) | – | – |
| CCOC(=O)N1CC(=O)C(C(=O)Nc2ccc(F)cc2)=C(O)C1 [Compound 1-29] | A (mortality 100%) | – | – |
| CC(C)(C)OC(=O)N1CC(=O)C(C(=O)Nc2ccc3c(c2)OCO3)=C(O)C1 [Compound 1-31] | A (mortality 100%) | – | – |
| CC(C)(C)OC(=O)N1CC(=O)C(C(=O)Nc2ccc(F)cn2)=C(O)C1 [Compound 1-32] | A (mortality 100%) | – | – |
| CC(C)(C)OC(=O)N1CC(=O)C(C(=O)Nc2ccc(SC(F)(F)F)cc2)=C(O)C1 [Compound 1-33] | A (mortality 100%) | – | – |
| CC(C)(C)OC(=O)N1CC(=O)C(C(=O)Nc2ccc(OC(F)(F)F)cc2)=C(O)C1 [Compound 1-35] | A (mortality 100%) | – | – |
| CC(C)(C)OC(=O)N1CC(=O)C(C(=O)Nc2ccc(Cl)cc2)=C(O)C1 [Compound 1-38] | A (mortality 100%) | – | – |
| CC(C)(C)OC(=O)N1CC(=O)C(C(=O)Nc2ccc(C(F)(F)F)cc2)=C(O)C1 [Compound 1-39] | A (mortality 100%) | – | – |
| CC(C)(C)OC(=O)N1CC(=O)C(C(=O)Nc2cccc(C(F)(F)F)c2)=C(O)C1 [Compound 1-40] | A (mortality 100%) | – | – |
| CC(C)(C)OC(=O)N1CC(=O)C(C(=O)Nc2ccc(F)cc2F)=C(O)C1 [Compound 1-44] | A (mortality 100%) | – | – |
| O=C1CN(C(=O)OCc2ccccc2)CC(O)=C1C(=O)Nc1ccc(F)cc1 [Compound 1-45] | A (mortality 100%) | – | – |
| O=C1CN(c2ccc(C(F)(F)F)cc2)CC(O)=C1C(=O)Nc1ccc(F)cc1 [Compound 1-48] | A (mortality 100%) | – | – |
| O=C1CN(c2ccc(C(F)(F)F)cc2)CC(O)=C1C(=O)Nc1ccc(C(F)(F)F)cc1 [Compound 1-49] | A (mortality 100%) | – | – |
| O=C1CN(c2ccc(F)cn2)CC(O)=C1C(=O)Nc1ccc(F)cc1 [Compound 1-51] | A (mortality 100%) | – | – |
| N#Cc1ccc(N2CC(=O)C(C(=O)Nc3ccc(F)cc3)=C(O)C2)nc1 [Compound 1-52] | A (mortality 100%) | – | A (mortality 100%) |
| O=C1CN(c2ccc(C(F)(F)F)cn2)CC(O)=C1C(=O)Nc1ccc(F)cc1 [Compound 1-53] | A (mortality 100%) | – | A (mortality 100%) |
| O=C1CN(c2ncc(C(F)(F)F)cc2Cl)CC(O)=C1C(=O)Nc1ccc(F)cc1 [Compound 1-54] | A (mortality 100%) | – | – |
| O=C1CN(c2ccc(C(F)(F)F)nc2)CC(O)=C1C(=O)Nc1ccc(F)cc1 [Compound 1-56] | A (mortality 100%) | – | A (mortality 100%) |

| Structure (SMILES) | corrected mortality, rating of assessment (Plutella xylostella) | corrected mortality, rating of assessment (Laodelphax striatellus) | corrected mortality, rating of assessment [1] |
| --- | --- | --- | --- |
| O=C1CN(c2ncc(I)cn2)CC(O)=C1C(=O)Nc1ccc(F)cc1 [Compound 1-57] | A (mortality 100%) | – | A (mortality 100%) |
| N#Cc1cnc(N2CC(=O)C(C(=O)Nc3ccc(F)cn3)=C(O)C2)nc1 [Compound 1-59] | A (mortality 100%) | A (mortality 100%) | – |
| N#Cc1cnc(N2CC(=O)C(C(=O)Nc3ccc(F)cc3)=C(O)C2)nc1 [Compound 1-60] | A (mortality 100%) | – | – |
| N#Cc1cnc(N2CC(=O)C(C(=O)Nc3ccc(C(F)(F)F)cc3)=C(O)C2)nc1 [Compound 1-61] | A (mortality 100%) | – | A (mortality 100%) |
| O=C1CN(c2ncc(C(F)(F)F)cn2)CC(O)=C1C(=O)Nc1ccc(F)cc1 [Compound 1-62] | A (mortality 100%) | A (mortality 100%) | A (mortality 100%) |
| O=C1CN(c2ncc(C(F)(F)F)cn2)CC(O)=C1C(=O)Nc1ccc(C(F)(F)F)cc1 [Compound 1-63] | A (mortality 100%) | – | A (mortality 100%) |
| O=C1CN(c2nccc(C(F)(F)F)n2)CC(O)=C1C(=O)Nc1ccc(F)cc1 [Compound 1-68] | A (mortality 100%) | – | – |
| O=C1CN(c2nc(Cl)c(Cl)c(Cl)n2)CC(O)=C1C(=O)Nc1ccc(F)cc1 [Compound 1-70] | – | A (mortality 100%) | – |
| O=C1CN(c2cnc(Br)cn2)CC(O)=C1C(=O)Nc1ccc(F)cc1 [Compound 1-71] | A (mortality 100%) | – | – |
| O=C1CN(c2ccc(Br)nn2)CC(O)=C1C(=O)Nc1ccc(F)cc1 [Compound 1-72] | A (mortality 100%) | – | A (mortality 100%) |
| O=C1CN(c2ccc(Cl)nn2)CC(O)=C1C(=O)Nc1ccc(F)cc1 [Compound 1-73] | A (mortality 100%) | – | – |
| O=C1CN(c2nc3ccccc3o2)CC(O)=C1C(=O)Nc1ccc(F)cc1 [Compound 1-74] | A (mortality 100%) | – | – |
| O=C1CN(c2nc3ncc(Cl)cc3s2)CC(O)=C1C(=O)Nc1ccc(F)cc1 [Compound 1-77] | A (mortality 100%) | – | – |
| O=C1CN(c2nc3ccc(Cl)cc3s2)CC(O)=C1C(=O)Nc1ccc(F)cc1 [Compound 1-79] | A (mortality 100%) | – | – |
| O=C1CN(c2nc3ccc(C(F)(F)F)cc3s2)CC(O)=C1C(=O)Nc1ccc(F)cc1 [Compound 1-80] | A (mortality 100%) | – | – |
| N#Cc1ncc(N2CC(=O)C(C(=O)Nc3ccc(F)cc3)=C(O)C2)s1 [Compound 1-85] | A (mortality 100%) | – | – |
| Cn1nc(N2CC(=O)C(C(=O)Nc3ccc(F)cc3)=C(O)C2)cc1C(F)(F)F [Compound 1-88] | A (mortality 100%) | – | A (mortality 100%) |
| O=C1CN(S(=O)(=O)c2ccc(C(F)(F)F)cc2)CC(O)=C1C(=O)Nc1ccc(F)cc1 [Compound 1-89] | A (mortality 100%) | – | – |
| O=C1CN(C(=O)c2ccc(C(F)(F)F)cc2)CC(O)=C1C(=O)Nc1ccc(OC(F)(F)F)cc1 [Compound 1-153] | A (mortality 100%) | – | – |
| O=C1CN(C(=O)C2CC2)CC(O)=C1C(=O)Nc1ccc(F)cc1 [Compound 1-160] | A (mortality 100%) | – | – |
| O=C1CN(S(=O)(=O)C2CC2)CC(O)=C1C(=O)Nc1ccc(F)cc1 [Compound 1-195] | – | A (mortality 100%) | – |
| CC(C)(C)OC(=O)N1CC(=O)C(C(=S)Nc2cccc(F)c2)=C(O)C1 [Compound 2-10] | – | – | A (mortality 100%) |
| O=C1CN(c2ncc(C(F)(F)F)cn2)CC(O)=C1C(=S)Nc1ccc(F)cc1 [Compound 2-31] | A (mortality 100%) | A (mortality 100%) | A (mortality 100%) |
| O=C1CN(c2ncc(Br)cn2)CC(O)=C1C(=S)Nc1ccccc1 [Compound 2-32] | A (mortality 100%) | – | – |
| O=C1CN(c2nc3ccc(C(F)(F)F)cc3s2)CC(O)=C1C(=S)NC1CC1 [Compound 2-36] | A (mortality 100%) | – | – |
| Cn1nc(N2CC(=O)C(C(=S)Nc3ccc(F)cc3)=C(O)C2)cc1C(F)(F)F [Compound 2-38] | – | – | A (mortality 100%) |
